These are yes or no findings as the source states them, for the method shown. In cells and extracts the contact can be indirect. Some entries that bind do so weakly or less than the wild type. Sequences can lack the tags named with a protein.

The record followed here is article PMC2330087, “Mechanistic Insights into a Novel Exporter-Importer System of Mycobacterium tuberculosis Unravel Its Role in Trafficking of Iron” (PLoS ONE, 2008).

The target of this assay is T1, rGST-IrtB (GST-tagged IrtB, Rv1349) (Mycobacterium tuberculosis H37Rv) (UniProt P9WQJ7).
T1 sequence: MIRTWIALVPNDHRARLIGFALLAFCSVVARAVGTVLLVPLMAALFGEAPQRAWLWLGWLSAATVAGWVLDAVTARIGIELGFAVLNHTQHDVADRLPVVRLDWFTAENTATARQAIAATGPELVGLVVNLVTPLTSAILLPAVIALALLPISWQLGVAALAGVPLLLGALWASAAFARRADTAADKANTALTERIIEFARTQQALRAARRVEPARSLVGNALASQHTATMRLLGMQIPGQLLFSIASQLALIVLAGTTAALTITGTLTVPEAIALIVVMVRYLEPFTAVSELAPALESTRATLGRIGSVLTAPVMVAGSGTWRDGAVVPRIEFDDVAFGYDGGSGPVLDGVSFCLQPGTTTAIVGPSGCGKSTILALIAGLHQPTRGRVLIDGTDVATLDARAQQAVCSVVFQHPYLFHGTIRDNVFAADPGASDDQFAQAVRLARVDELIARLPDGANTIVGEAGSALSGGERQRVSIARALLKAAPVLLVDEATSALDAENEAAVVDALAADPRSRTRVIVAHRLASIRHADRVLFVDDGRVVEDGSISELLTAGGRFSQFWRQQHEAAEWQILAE
Description: pull-down; only the target purified.

B1: Rv2895c from M.tb H37Rv lysate (protein, UniProt P9WL31 1-283)
chain: MAGRPLHAFEVVATRHLAPHMVRVVLGGSGFDTFVPSDFTDSYIKLVFVDDDVDVGRLPRPLTLDSFADLPTAKRPPVRTMTVRHVDAAAREIAVDIVLHGEHGVAGPWAAGAQRGQPIYLMGPGGAYAPDPAADWHLLAGDESAIPAIAAALEALPPDAIGRAFIEVAGPDDEIGLTAPDAVEVNWVYRGGRADLVPEDRAGDHAPLIEAVTTTAWLPGQVHVFIHGEAQAVMHNLRPYVRNERGVDAKWASSISGYWRRGRTEEMFRKWKKELAEAEAGTH
As for B1, the binding result is on record as “binds”.
